Data reported in publication PMC10925683.
Results are given in words; binding and its absence hold for the method and conditions named. In cells and extracts the contact can be indirect. Some results given as binding are weak or reduced against the parent protein; the word gives no strength. Where a sequence is shown, tags or fusion partners need not be part of it.

Chains of the proteins cited; added tags and fusions are not shown.
UniProt Q96P20: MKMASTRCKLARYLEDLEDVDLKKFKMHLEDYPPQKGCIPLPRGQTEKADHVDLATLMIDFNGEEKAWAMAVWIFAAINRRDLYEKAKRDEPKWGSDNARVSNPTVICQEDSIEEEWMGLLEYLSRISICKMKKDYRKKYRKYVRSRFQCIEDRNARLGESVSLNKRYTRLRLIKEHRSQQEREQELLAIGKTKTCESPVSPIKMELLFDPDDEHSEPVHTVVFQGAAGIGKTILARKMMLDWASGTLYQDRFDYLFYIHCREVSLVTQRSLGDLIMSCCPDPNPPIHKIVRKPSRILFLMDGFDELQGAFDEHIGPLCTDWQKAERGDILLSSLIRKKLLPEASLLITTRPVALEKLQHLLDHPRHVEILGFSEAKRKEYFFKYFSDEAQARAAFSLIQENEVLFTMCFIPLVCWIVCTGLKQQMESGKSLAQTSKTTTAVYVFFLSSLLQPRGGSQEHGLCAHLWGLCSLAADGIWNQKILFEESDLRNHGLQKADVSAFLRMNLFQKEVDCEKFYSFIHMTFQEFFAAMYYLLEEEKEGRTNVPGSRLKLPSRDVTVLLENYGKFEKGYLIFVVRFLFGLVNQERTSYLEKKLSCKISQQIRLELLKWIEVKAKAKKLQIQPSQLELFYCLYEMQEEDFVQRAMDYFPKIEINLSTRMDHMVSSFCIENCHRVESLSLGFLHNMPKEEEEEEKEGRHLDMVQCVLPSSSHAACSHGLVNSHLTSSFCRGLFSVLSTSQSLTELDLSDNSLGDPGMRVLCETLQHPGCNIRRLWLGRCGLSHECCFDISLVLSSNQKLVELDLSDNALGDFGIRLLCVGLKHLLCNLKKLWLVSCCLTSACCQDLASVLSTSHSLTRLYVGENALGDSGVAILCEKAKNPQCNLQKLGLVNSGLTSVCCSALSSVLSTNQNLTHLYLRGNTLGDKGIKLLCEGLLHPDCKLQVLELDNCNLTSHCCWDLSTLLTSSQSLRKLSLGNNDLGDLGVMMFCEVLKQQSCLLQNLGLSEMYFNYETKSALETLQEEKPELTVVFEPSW
UniProt Q9ULZ3: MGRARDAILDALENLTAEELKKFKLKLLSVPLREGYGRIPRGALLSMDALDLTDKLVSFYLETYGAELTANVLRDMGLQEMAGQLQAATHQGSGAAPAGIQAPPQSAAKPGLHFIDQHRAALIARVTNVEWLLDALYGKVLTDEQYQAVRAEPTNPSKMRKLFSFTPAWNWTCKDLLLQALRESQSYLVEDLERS
UniProt P29466: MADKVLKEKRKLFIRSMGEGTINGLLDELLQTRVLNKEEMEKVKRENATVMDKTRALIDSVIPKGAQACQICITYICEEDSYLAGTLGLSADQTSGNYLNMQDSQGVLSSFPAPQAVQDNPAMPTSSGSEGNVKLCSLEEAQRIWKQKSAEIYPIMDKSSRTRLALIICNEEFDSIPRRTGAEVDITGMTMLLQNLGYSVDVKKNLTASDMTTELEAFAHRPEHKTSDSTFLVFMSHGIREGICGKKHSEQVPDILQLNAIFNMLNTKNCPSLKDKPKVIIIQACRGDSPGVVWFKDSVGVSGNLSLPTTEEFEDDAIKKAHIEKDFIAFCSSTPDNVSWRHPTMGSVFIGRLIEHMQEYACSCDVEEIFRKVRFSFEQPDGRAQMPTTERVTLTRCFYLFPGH

Biological target: T1, ubiquitin specific protease 50 (Flag-USP50) (UniProt Q70EL3)
T1 sequence: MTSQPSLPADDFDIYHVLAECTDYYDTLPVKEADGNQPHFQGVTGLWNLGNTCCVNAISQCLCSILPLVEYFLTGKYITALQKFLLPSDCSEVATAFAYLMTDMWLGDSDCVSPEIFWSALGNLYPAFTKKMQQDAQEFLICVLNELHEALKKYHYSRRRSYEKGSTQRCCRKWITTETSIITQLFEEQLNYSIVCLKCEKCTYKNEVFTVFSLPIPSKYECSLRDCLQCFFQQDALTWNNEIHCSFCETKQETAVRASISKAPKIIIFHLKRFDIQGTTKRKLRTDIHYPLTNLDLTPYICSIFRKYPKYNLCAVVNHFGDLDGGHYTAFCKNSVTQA
Assay: co-IP; lysate of U937 cells stably expressing Flag-USP50 (or vector); anti-FLAG antibody overnight at 4°C, agarose 4 h, washed three times; western blotting of the precipitate

“NLR family pyrin domain containing 3 (NLRP3) (from UniProt Q96P20 1-1036)” was tested, and the binding was “binds weakly”.
In the case of “apoptosis-associated speck-like protein containing CARD (ASC) (from UniProt Q9ULZ3 1-195)”, the binding is reported as “binds”.
“procaspase-1 (from UniProt P29466 1-404)” was tested, and the binding was “no binding”.
